# At least one structure is not confirmed: it was looked up by name or label, or the drawing left a doubt.
# Target: T1, human DNC (mitochondrial deoxynucleotide carrier) (Homo sapiens, UniProt Q9HC21)
# T1 construct: Amino acids are numbered from 1-320; made in house; host or cells: E. coli BL21(DE3), pET21b; inclusion bodies solubilized in sarkosyl, Ni-NTA purified
# T1 sequence (Q9HC21 2-320 limits assumed): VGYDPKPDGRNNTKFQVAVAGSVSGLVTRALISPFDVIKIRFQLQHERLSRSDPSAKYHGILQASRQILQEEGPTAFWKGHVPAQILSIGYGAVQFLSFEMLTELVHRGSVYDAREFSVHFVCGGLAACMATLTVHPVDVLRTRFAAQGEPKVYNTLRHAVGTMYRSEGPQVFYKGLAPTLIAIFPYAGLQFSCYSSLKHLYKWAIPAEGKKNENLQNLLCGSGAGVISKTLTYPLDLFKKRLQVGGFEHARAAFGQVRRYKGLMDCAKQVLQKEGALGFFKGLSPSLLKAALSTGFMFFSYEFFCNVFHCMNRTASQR
# Experiment: Homo-exchange of other carrier substrates in DNC proteoliposomes
# Assay type: biochemical
# Settings: internal concentration 10 mM; external concentration 1 mM
# Procedure: The recombinant protein in sarkosyl was reconstituted into liposomes in the presence of substrates (10). […] Transport was measured at 25° C. with internal and external pHs at 6.8. It was started by adding [α-35S]dATP or [^14C]-ADP and terminated after 2 min by addition of 100 mM of p-chloromercuribenzene sulfonate (10). Entrapped radioactivity was counted (10). The initial transport rate was calculated from the radioactivity taken up by proteoliposomes within 2 min (in the initial linear range). Other transport activities were assayed similarly (10).
smiles,measurement,value
N[C@@H](CC(=O)O)C(=O)O [aspartate],homo-exchange catalysed by reconstituted DNC,did not catalyse

# From patent US20030036111A1, “Mitochondrial protein” (priority 2001, published 2003)
